Measured values published in US20150212087A1, “Detection of the ERalpha/Src/PI3K Complex as Predictive Marker in Breast Cancer” (Centre Leon Berard, priority 2012, published 2015).
At least one compound was matched to its structure with a doubt left.

Tests used:
ERα/Src interaction = experiment: In situ Proximity Ligation Assay (PLA) detection of ERα/Src interaction in MCF-7 cells; format: cell-based, human; settings: upon treatment
Source text: (§1) Castoria et al. reported that estrogen rapidly triggers the interaction of ERα with Src and PI3K in MCF-7 cells, forming a complex involved in estrogen nongenomic-induced cell proliferation. […] Therefore the physiological relevance of this signaling pathway remains questionable. To date, immuno fluorescence analysis of the complex has been impeded by the fact that only a small population of ERα interacts with Src and PI3K. To circumvent this problem, we used a newly developed technique, the Proximity Ligation Assay. […] We investigated the ERα/PI3K interaction in the human breast tumor cell line MCF-7, using a rabbit anti-ERα together with a mouse anti-p85 antibody. The ERα/Src interaction was detected using the same anti-ERα together with a mouse anti-Src antibody. […] No dots were detected using only one antibody as confirmed by counting dots per 100 cells (FIG. 1, around 50 dots/cell versus less than 5). Importantly, the number of red dots increased after 5 min of estrogenic treatment then decreased after 15 min. This confirmed that upon estrogenic treatment, the formation of this complex is rapid and transitory (FIG. 2:)). […] They were detected exclusively in the […] of MCF-7 cells, as expected. […]

ERα/PI3K interaction = experiment: In situ Proximity Ligation Assay (PLA) detection of ERα/PI3K interaction in MCF-7 cells; format: cell-based, human; settings: upon treatment
Source text: as §1

breast cancer = settings: patients with TNBC, or patients with heavily treated metastatic breast cancer; cited from earlier work

Structure (SMILES)	ERα/Src interaction (red dots) by PLA (ERα/Src interaction)	ERα/PI3K interaction (red dots) by PLA (ERα/PI3K interaction)	clinical activity as a single agent (breast cancer)
O=c1cc(N2CCOCC2)oc2c(-c3ccccc3)cccc12 [LY294002]	significant decrease of red dots	significant decrease of red dots	–
Cc1nc(Nc2ncc(C(=O)Nc3c(C)cccc3Cl)s2)cc(N2CCN(CCO)CC2)n1 [dasatinib]	–	–	limited activity
